Measured values reported in PubChem BioAssay AID1347076 (National Center for Advancing Translational Sciences (NCATS), 2019).
Values joined by “and” are separate entries in the source; they are usually repeats but may differ in a detail not shown here. Equal entries are not always repeated. The campaign covered roughly 400,000 compounds. About 13,000 (3.2%) were called active. Inconclusive means that the source gave no clear call. Such entries were picked first, then a sample of the others. The call rests on the fitted dose curve; in most records, active means well fitted cell-killing curve with a large enough effect; inconclusive means small, poorly fitted or top-dose-only effect, or effect the other way; inactive means flat fitted curve, though single readings scatter. Potencies beside an inconclusive call are fits to weak or partial responses and may not hold up.

Assay: qHTS assay for MDR1-selective chemotherapeutics: Primary screen using the drug-selected MDR subline cells KB-V1; further: nearly all actives have a fitted effect of over 60% in size
Details: KB-V1 MDR cells viability, CellTiter-Glo, 72 h; activity change, negative = cytotoxicity: at 46.1 µM (top of the series)
Procedure, shortened: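 KB-V1 cells (P-gp-expressing MDR subline of KB-3-1) in phenol-red-free DMEM with 10% FBS were exposed to library compounds over a concentration series for 72 h at 37 degrees C. Viability read by CellTiter-Glo luminescence; concentration-effect curves fitted after normalization.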
On the % scale 0 is the no-effect control and ±100 the full control effect; potency means the concentration at half of the fitted maximal effect.

SMILES	Potency	activity change, negative = cytotoxicity
CSc1nnc(N2C(=O)C(O)=C(C(=O)c3ccco3)C2c2ccccc2)s1 (stereo unspecified)	inconclusive: 29.1 µM [rising, single point]	–
O=C(CCCOc1ccccc1)Nc1ccc(Cl)cn1	inconclusive: 29.1 µM [cytotoxic, single point]	–
CN(C)c1ccc(NC(=O)Cn2cc(S(=O)(=O)Cc3cccc(Cl)c3)c3ccccc32)cc1	inactive	–
COc1cc(Cn2c3ccc(NC(=O)CCc4ccccc4)cc3c(=O)n2C)ccc1F	active: 5.8 µM	–
Cc1ccc(C)c(NC(=S)NC2CC3CCCC(C2)N3CC(C)C)c1 (stereo unspecified)	inconclusive: 16.4 µM [cytotoxic, partial curve]	–
Cc1ccc2c(c1)N(CC(=O)NCC(C)c1ccccc1)C(=O)c1cccnc1O2 (stereo unspecified)	inactive	–
CCN(C(=O)CSc1ccc2ccccc2n1)C1CCS(=O)(=O)C1 (stereo unspecified)	inconclusive: 18.4 µM [cytotoxic, single point]	–
COC(=O)c1c(C)[nH]c(C(=O)/C=C/c2ccccc2)c1C	active: 11.6 µM	–
Cc1cc2nc(-c3ccc(OCc4ccccc4F)cc3)cc(C(F)(F)F)n2n1	inconclusive: 29.1 µM [rising, single point]	–
O=C(Nc1ccccc1)C1CCN(c2ncc(-c3ccc4c(c3)OCCCO4)s2)CC1	inactive	–
Cc1nnc(NC(=O)c2sc3nc(-c4cccs4)cc(C(F)(F)F)c3c2N)s1	active: 13 µM	–
Cc1ccc(C)c(NC(=O)c2oc(=O)c3ccccc3c2-c2ccccc2)c1	active: 18.4 µM and inconclusive: 29.1 µM [cytotoxic, single point]	–
Oc1ccc(-c2cnc3ccccc3n2)cc1	inconclusive: 29.1 µM [cytotoxic, single point]	–
O=C(Nc1c2c(nc3ccccc13)CCCC2)c1ccccc1Cl	inactive	–
C/C(=N\NC(=O)c1ccc(N/N=C(\C)c2ccc(O)cc2)cc1)c1ccc(O)cc1	inactive	–
O=C(c1cc(Cl)nc2ccccc12)N(Cc1nnc(-c2ccccc2Cl)o1)C1CC1	inconclusive: 5.8 µM [cytotoxic, full curve]	–
Cc1ccc(-c2c(C(=O)Nc3ccccc3F)oc(=O)c3ccccc23)cc1	inactive	–
Cn1c(=O)c2c(SCC(=O)NCC3CCCO3)nc(-c3ccccc3Cl)nc2n(C)c1=O (stereo unspecified)	inconclusive: 4.61 µM [cytotoxic, partial curve, poor fit]	–
Cc1[nH]n(-c2ccccc2)c(=O)c1C(=O)c1cccc(F)c1	inconclusive: 29.1 µM [cytotoxic, single point]	–
COC(=O)c1nc2ccccn2c1F	inconclusive: 18.4 µM [rising, single point]	–
CCc1ccccc1NC(=O)c1cc(C)no1	inconclusive: 23.1 µM [rising, partial curve]	–
O=C1/C(=C\c2ccc(O)c(O)c2)SC(=S)N1Cc1ccccc1	inconclusive: 29.1 µM [cytotoxic, single point]	–
COc1ccc(OC)c(NC(=O)COC(=O)Cn2nnc(-c3ccccc3)n2)c1	inconclusive: 29.1 µM [rising, single point]	–
Cc1cccc(C)c1OCC(=O)N=Nc1c(O)[nH]c2ccc(Br)cc12	inconclusive: 16.4 µM [cytotoxic, single point]	–

SMILES	Potency	activity change, negative = cytotoxicity
COc1ccc(/C(C)=N/NC(=O)CNC(=O)/C=C\c2ccco2)cc1	inconclusive: 18.4 µM [rising, single point]	–
Cc1ccc(C)c(N2CCN(C(=O)Cn3cnc4nc5c(cc4c3=O)CCCC5)CC2)c1	inactive	–
CC(C)CN(CC(C)C)C(=O)CCCC(=O)N(CC(C)C)CC(C)C	inconclusive: 7.31 µM [cytotoxic, partial curve]	–
CCOC(=O)COc1ccc(C)cc1-c1ccno1	inconclusive: 20.6 µM [rising, single point]	–
CC(=O)c1ccc2c(c1)c1ccccc1n2CC(C)C	inconclusive: 29.1 µM [cytotoxic, single point]	–
COc1ccc(N2CCN(C(=O)c3ccc(COc4ccc5c(C)cc(=O)oc5c4)cc3)CC2)cc1	inconclusive: 10.3 µM [cytotoxic, partial curve, poor fit]	–
COc1ccc(Oc2nc(SC)nc3ccccc23)cc1	inconclusive: 23.1 µM [cytotoxic, single point]	–
CSc1nc2ccc(S(N)(=O)=O)cc2s1	–	inconclusive: 37.8%
Cc1cccc(C(=O)Oc2csc(=S)n2C(=O)c2cccc(C)c2)c1	inactive	–
CCC1CCCCN1CCCNC(=O)c1cn(C)c2ccc(S(=O)(=O)N3CCOCC3)cc2c1=O (stereo unspecified)	inconclusive: 14.6 µM [rising, single point]	–
CC(C)Oc1ccc(C(=O)NC(=S)Nc2ccc(CN3CCOCC3)cc2)cc1	inconclusive: 18.4 µM [cytotoxic, partial curve]	–
O=C(NC1C=CS(=O)(=O)C1)c1ccccc1 (stereo unspecified)	inconclusive: 1.64 µM [rising, full curve]	–
O=C(Cn1cc(S(=O)(=O)Cc2ccccc2F)c2ccccc21)Nc1ccc(F)c(Cl)c1	inconclusive: 23.1 µM [cytotoxic, partial curve]	–
CC(=O)c1cc(F)ccc1OCC(=O)N1CCN(c2ccc(F)cc2)CC1	inconclusive: 16.4 µM [cytotoxic, single point]	–
Cc1ccc(C(=O)NCCn2cc(SCC(=O)Nc3cc(C)on3)c3ccccc32)cc1	inactive	–
CN(C)c1ccc(C(CNC(=O)c2ccc(C#N)cc2)c2c[nH]c3ccccc23)cc1 (stereo unspecified)	inconclusive: 9.2 µM [cytotoxic, partial curve, poor fit]	–
COc1ccc2c(CNCc3ccco3)c(C(=O)O)n(Cc3cccc(F)c3)c2c1	inactive	–
COc1ccc(/C=C/c2nc(-c3ccccc3O)n(-c3ccccc3)n2)cc1	active: 16.4 µM	–
Cc1cc(C)cc(-c2nnc(SCC(=O)NCC3CCCO3)o2)c1 (stereo unspecified)	inactive	–
OCC1OC(n2cnc3c(NCc4ccccc4O)ncnc32)C(O)C1O (stereo unspecified)	active: 10.3 µM	–
COC(=O)c1cc(-c2ccc(OC)cc2F)nc2nc(SC)[nH]c(=O)c12	inconclusive: 2.31 µM [rising, partial curve, poor fit]	–
C/C(=N/O)c1ccc2c(c1)OCCOCCOc1cc(/C(C)=N/O)ccc1OCCOCCO2	inactive	–
CCCCn1c(=O)c(Cc2ccccc2)c(O)c2ccccc21	inconclusive: 23.1 µM [cytotoxic, single point]	–
COc1ccc(C(=O)Nc2ccccc2C(=O)N/N=C/c2cccc3ccccc23)cc1	inconclusive: 18.4 µM [cytotoxic, single point]	–

A different layout for 13 compounds above.
SMILES | Potency | activity change, negative = cytotoxicity
COc1ccc(/C(C)=N/NC(=O)CNC(=O)/C=C\c2ccco2)cc1 | inconclusive: 18.4 µM [rising, single point] | –
CC(=O)c1ccc2c(c1)c1ccccc1n2CC(C)C | inconclusive: 29.1 µM [cytotoxic, single point] | –
COc1ccc(Oc2nc(SC)nc3ccccc23)cc1 | inconclusive: 23.1 µM [cytotoxic, single point] | –
CCC1CCCCN1CCCNC(=O)c1cn(C)c2ccc(S(=O)(=O)N3CCOCC3)cc2c1=O (stereo unspecified) | inconclusive: 14.6 µM [rising, single point] | –
CC(C)Oc1ccc(C(=O)NC(=S)Nc2ccc(CN3CCOCC3)cc2)cc1 | inconclusive: 18.4 µM [cytotoxic, partial curve] | –
O=C(NC1C=CS(=O)(=O)C1)c1ccccc1 (stereo unspecified) | inconclusive: 1.64 µM [rising, full curve] | –
O=C(Cn1cc(S(=O)(=O)Cc2ccccc2F)c2ccccc21)Nc1ccc(F)c(Cl)c1 | inconclusive: 23.1 µM [cytotoxic, partial curve] | –
Cc1ccc(C(=O)NCCn2cc(SCC(=O)Nc3cc(C)on3)c3ccccc32)cc1 | inactive | –
COc1ccc2c(CNCc3ccco3)c(C(=O)O)n(Cc3cccc(F)c3)c2c1 | inactive | –
COc1ccc(/C=C/c2nc(-c3ccccc3O)n(-c3ccccc3)n2)cc1 | active: 16.4 µM | –
Cc1cc(C)cc(-c2nnc(SCC(=O)NCC3CCCO3)o2)c1 (stereo unspecified) | inactive | –
COC(=O)c1cc(-c2ccc(OC)cc2F)nc2nc(SC)[nH]c(=O)c12 | inconclusive: 2.31 µM [rising, partial curve, poor fit] | –
C/C(=N/O)c1ccc2c(c1)OCCOCCOc1cc(/C(C)=N/O)ccc1OCCOCCO2 | inactive | –

Continuation:

SMILES	Potency	activity change, negative = cytotoxicity
O=C1c2cccnc2C(Nc2ccc(F)c(Cl)c2)N1Cc1cccs1 (stereo unspecified)	–	inconclusive: -30.5% [cytotoxic]
COc1cccc(C(=O)Nc2nc(-c3nnn(-c4cccc(Cl)c4C)c3C)ns2)c1	inactive	–
Cn1c(NCCCO)nc2c1c(=O)n(Cc1cccc(F)c1)c(=O)n2C	inactive	–
Cc1ccc2nc(SCC(=O)OCc3ccccc3)nc(=O)n2c1	inactive	–
CN(Cc1ccccc1)C(=O)Cn1c(=O)oc2cc(S(=O)(=O)N3CCCC3)ccc21	inconclusive: 20.6 µM [cytotoxic, single point]	–
COc1ccc(Cl)cc1NC(=O)CN(C)C(=O)CN1C(=O)NC(C)(c2ccc3ccccc3c2)C1=O (stereo unspecified)	inconclusive: 7.31 µM [cytotoxic, full curve, poor fit]	–
CNc1cccc2c1C(=O)c1ccccc1C2=O	–	inconclusive: -34.6%
CCOC(=O)N1CCC(N2C(=O)c3ccccc3C2Nc2ccc(C)cc2)CC1 (stereo unspecified)	inconclusive: 16.4 µM [rising, single point]	–
COc1ccc(CN2C(=O)CSCC2=O)cc1OC	inconclusive: 3.66 µM [rising, full curve, poor fit]	–
c1ccc(Nc2c3c(nc4ncnn24)CCC3)cc1	inconclusive: 6.51 µM [cytotoxic, full curve, poor fit]	–
Cc1ccc(Nc2ncnc(N)n2)cc1	inconclusive: 29.1 µM [rising, single point]	–
CCCN(CCC)C(=O)C1CCN(c2cc(C)nc3c(-c4ccc(Cl)cc4)c(C)nn23)CC1	inactive	–
CC(=O)Nc1cc(-c2ccccc2N(C)C)cn2c(-c3ccccc3)cnc12	inconclusive: 16.4 µM [cytotoxic, single point]	–
Cn1nc(C(F)(F)F)c(-c2ccc(F)cc2)c1NC(=O)Nc1ccc(F)cc1	inconclusive: 18.4 µM [cytotoxic, single point]	–
COc1ccc2c(-c3cc4ccc(OCc5ccc(F)cc5)cc4oc3=O)cc(=O)oc2c1	active: 8.2 µM	–
Cc1ccc(N2CC(=O)Nc3c(sc4nc(C)cc(C)c34)C2=O)cc1	inactive	–
C/C(=N/Nc1ncc(C(F)(F)F)cc1Cl)c1ccncc1	inconclusive: 32.6 µM [cytotoxic, single point]	–
Cc1cc(C(=O)CN2C(=O)NC3(CCCCC3C)C2=O)c(C)n1Cc1cccs1 (stereo unspecified)	active: 23.1 µM	–
CC1CN(c2nnc(NC(=O)c3ccccc3)s2)CC(C)O1 (stereo unspecified)	inconclusive: 2.91 µM [cytotoxic, full curve, poor fit]	–
CCOC(=O)C1=CN(CC)S(=O)(=O)NC1c1ccccc1 (stereo unspecified)	inconclusive: 23.1 µM [rising, single point]	–
CCOc1cc(/C=C(\C#N)C(=O)Nc2ccccc2C(=O)O)ccc1OC(=O)c1ccc(C)cc1	inconclusive: 5.8 µM [rising, full curve]	–
COC(=O)C1CCN(C2CN(Cc3ccc(F)cc3)S(=O)(=O)C2)CC1 (stereo unspecified)	inactive	–
Cc1ccc([C@H]2C[C@H](O)[C@@H](n3cc(-c4ccc(F)cc4)nn3)CN2Cc2cccs2)cc1	inconclusive: 29.1 µM [cytotoxic, single point]	–
